According to paper PMC8789831:
Results are given in words; binding and its absence hold for the method and conditions named. Binding seen in cells or lysates may run through a third protein. Some entries that bind do so weakly or less than the wild type.

Target: endogenous TCP1α (human (endogenous in HeLa)) (UniProt P17987)
Assay: co-IP; data not shown; coprecipitation with endogenous TCP1α in the presence of a (de)polymerization inhibitor with bafilomycin A1

- binding: binds
Substance: p62 (from UniProt Q13501 1-440)
